For 1 molecule, binding results are on record in paper PMC12506653.

Sequences of proteins named here, by UniProt entry; tags and fusion partners are left off. A change or cut given only in a name is not applied to a line headed by its entry.
UniProt G5EF06: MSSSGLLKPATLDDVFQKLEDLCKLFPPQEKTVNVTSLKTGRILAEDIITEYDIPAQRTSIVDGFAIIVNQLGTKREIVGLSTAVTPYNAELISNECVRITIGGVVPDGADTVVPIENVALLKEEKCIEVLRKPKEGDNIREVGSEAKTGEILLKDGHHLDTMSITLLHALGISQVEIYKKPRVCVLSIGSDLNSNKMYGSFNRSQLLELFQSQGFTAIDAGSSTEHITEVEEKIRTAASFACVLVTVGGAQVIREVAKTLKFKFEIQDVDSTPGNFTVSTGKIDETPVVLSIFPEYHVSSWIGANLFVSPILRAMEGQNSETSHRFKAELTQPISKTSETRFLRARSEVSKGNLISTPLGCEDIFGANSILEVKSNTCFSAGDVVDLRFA

The test has as its target LIN-46 (as used in the GST pull down) (C. elegans) (UniProt G5EF06). The test is described as follows: pull-down; GST pull down in vitro; constructs and conditions not told.

Results are given in words; binding and its absence hold for the method and conditions named. Binding seen in cells or lysates may run through a third protein. Binding can be weak; no strength is given. Tags and fused reporters may be left off the sequences shown.

B1: HBL-1 (as used in the GST pull down) (protein, UniProt Q9XYD3 1-982)
chain: MVQSDSPEELAQRAKPAWRLQQMPVQLSNFVSKTPLIGSEWPPTGDWRSANNNSLGDWNKCCVPGSEIPQHLGPFGNSSLTMLTAQQPGEKIHPDGGYVSPKEDGRKSSEHTNSYDVSASQSPSNDGAQSDSTSDEHIDVECMTETEMDTDEKDSTIKPEDQATPKLEEGSDSKPESTSVEGTSSNYQVTSEPVQMPQMPIPVIPSFLKNSLPAPIPITPTQSANVERSNSPSIEEALLLTLSQQQFAEVFAEAAKIRKSSSESIGFQRSGTSAFLNIEPKEMSMSSANNNNEEAPASTVSACSTPTTTTSASFCRPPGLGPVALPPTQNGQTPMLVCPICGFMCPSKFHFNSHMNTHGDHQCSMCDYTSRTEGRLKKHMRESHTVEEQLRAGFESEPAKESASSPKNLSLSKDGSATSPINEIFNLSTTMASILDSTNNAVSSTSTTEQPSALSALTLDMSSTPSLLSTLAHSSFGVSALDQIKAISENPSFMPEGGINLASALGVVSNAIKGDTPSPEKQSNGECRRSSSGKIKIFKCKQCGHQSLSKDDQWAHARTHIPAEKQLNCQHCNFVTEYKHHLEYHYRNHIGSKPFQCKKCAYNCVNKSMLNSHMKSHTNHYQFRCMDCTYATKYCHSLKLHLKKYNHRRVPEGIEMSGGDSSPPFTSDATITFSPLMKQEIKTETVEPVTSIAQPFPFNPMMGNHGLNFANHMLLNKHLDVGLMGLRNSVMSPLKCSACDFVASSADEKMRHSMSHILNSSNVPTSIASLYNSLNLPSFSHVAPDNDNALESMDCDVKIDDDNITESHCYEEMDQGSDSAVSPTGSSQISSGDEETKKCKSLSLEQISARANGNNSPMSNDSAMEKDGESADDAPHSPSDTTSVPSPPLHSSSIVAPIPITPQPNEFLQSILAQASLLGPLLANRPSAFYCDHCKIPFDTQQVLDSHMRFHTPGNPFMCSDCQYQAFNELSFALHMYQARHQ
For B1, the binding entry is given as “binds”.
